Experimental data reported in paper doi:10.1101/2025.08.28.672006.
Where a chain is given by its changes, count along the chain named. No constants are given. Whether binding was seen depends on the method and setting. Binding seen in cells or lysates may run through a third protein. Some results given as binding are weak or reduced against the parent protein; the word gives no strength. Where a sequence is shown, tags or fusion partners need not be part of it.

Chains of the proteins cited; added tags and fusions are not shown.
UniProt Q86UR5: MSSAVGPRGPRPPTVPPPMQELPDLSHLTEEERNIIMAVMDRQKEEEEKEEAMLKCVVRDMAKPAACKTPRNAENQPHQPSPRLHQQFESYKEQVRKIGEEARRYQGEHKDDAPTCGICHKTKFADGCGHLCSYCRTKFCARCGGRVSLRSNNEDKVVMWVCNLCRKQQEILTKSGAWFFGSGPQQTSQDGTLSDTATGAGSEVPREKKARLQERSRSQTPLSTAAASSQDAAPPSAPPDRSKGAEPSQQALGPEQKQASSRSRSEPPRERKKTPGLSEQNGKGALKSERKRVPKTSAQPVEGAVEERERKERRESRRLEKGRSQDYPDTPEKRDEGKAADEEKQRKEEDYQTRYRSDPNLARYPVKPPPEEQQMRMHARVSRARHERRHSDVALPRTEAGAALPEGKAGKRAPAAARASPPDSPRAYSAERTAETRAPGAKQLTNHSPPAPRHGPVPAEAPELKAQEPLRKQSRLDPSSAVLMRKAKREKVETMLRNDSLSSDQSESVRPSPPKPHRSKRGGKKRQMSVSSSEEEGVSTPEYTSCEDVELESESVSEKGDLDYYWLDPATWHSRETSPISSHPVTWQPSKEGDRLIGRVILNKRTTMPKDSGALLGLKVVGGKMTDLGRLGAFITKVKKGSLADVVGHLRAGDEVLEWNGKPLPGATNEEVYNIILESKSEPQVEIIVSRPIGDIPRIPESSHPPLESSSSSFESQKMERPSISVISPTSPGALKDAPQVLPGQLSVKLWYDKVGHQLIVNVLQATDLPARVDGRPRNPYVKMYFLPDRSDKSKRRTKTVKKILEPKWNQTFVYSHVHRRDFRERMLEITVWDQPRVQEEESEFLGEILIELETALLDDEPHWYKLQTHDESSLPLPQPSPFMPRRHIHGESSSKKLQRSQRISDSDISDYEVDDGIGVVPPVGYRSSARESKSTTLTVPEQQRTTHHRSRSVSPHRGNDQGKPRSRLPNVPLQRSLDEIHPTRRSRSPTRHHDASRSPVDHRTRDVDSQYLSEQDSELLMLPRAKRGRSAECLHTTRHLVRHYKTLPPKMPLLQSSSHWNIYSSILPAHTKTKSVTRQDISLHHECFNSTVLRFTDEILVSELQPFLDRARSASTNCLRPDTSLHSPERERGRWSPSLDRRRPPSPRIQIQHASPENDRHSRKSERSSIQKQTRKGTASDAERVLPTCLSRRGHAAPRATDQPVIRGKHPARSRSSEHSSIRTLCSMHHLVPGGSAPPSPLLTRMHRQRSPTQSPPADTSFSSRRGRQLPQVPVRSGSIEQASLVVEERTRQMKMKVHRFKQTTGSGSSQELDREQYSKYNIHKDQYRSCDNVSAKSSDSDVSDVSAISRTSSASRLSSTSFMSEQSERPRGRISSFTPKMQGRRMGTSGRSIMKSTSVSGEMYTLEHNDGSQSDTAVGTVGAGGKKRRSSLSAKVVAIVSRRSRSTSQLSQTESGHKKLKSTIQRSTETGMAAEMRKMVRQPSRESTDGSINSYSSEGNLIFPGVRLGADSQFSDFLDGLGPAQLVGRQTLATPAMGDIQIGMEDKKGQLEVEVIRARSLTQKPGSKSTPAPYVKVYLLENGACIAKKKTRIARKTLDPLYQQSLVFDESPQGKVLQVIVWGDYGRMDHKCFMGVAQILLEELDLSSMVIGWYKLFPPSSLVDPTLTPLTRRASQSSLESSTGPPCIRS

Experiments:
HA-RAB3A = target: T1, HA-RAB3A (UniProt P20336); test: co-IP; HEK-293 cells co-transfected with HA-RAB3 constructs and myc-flag-RIM1; lysate (20 mM Tris-HCl pH 7.5, 150 mM NaCl, 1 mM EDTA, 0.3% Triton-X100, 10% glycerol) on magnetic anti-HA beads, 1 h at 4 °C; Western blot
T1 sequence: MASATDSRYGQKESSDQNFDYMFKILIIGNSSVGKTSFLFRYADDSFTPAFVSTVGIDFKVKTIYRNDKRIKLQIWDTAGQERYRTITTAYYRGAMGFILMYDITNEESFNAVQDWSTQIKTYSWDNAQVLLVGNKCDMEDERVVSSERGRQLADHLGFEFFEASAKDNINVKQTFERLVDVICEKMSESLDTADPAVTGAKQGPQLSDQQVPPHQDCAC

HA-RAB3A T86E = target: T2, HA-RAB3A T86E (UniProt P20336); test: as above
T2 sequence: T1 sequence with T86E

“myc-flag-RIMS1 (from UniProt Q86UR5 1-1692)” was tested, and the binding (HA-RAB3A) was “binds” and the binding (HA-RAB3A T86E) was “binds”.
